Structures can show the parent of a compound that is named as a salt. This is one part of the list. Hit calls seldom repeat between salt and free forms of one compound.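 In K562 cells expressing nanoluciferase-fused kinases, luminescence was recorded at 4 h intervals between 2 and 18 h, normalized as percent of control with DMSO at 100% and a positive control at 0%. A significant (2 sigma) signal drop marks a time point as decreased. The authors' rule for a hit is not shown and takes in more than the number of time points.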
Experiments:
Test in all cases: kinase-Nluc reporter destabilization hit call (1 = scored as downregulated) (binary); higher = compound decreases kinase abundance
Settings in all cases: K562; 2-18 h
ABL1 = ABL1 (UniProt P00519)
AKT1 = AKT1 (UniProt P31749)
ALK = ALK (UniProt Q9UM73)
ARAF = ARAF (UniProt P10398)
AURKA = AURKA (UniProt O14965)
AURKB = AURKB (UniProt Q96GD4)
AURKC = AURKC (UniProt Q9UQB9)
BLK = BLK (UniProt P51451)
BMX = BMX (UniProt P51813)
BRAF = BRAF (UniProt P15056)

Sequences of proteins named here, by UniProt entry; tags and fusion partners are left off. A change or cut given only in a name is not applied to a line headed by its entry.
UniProt P00519, whole entry: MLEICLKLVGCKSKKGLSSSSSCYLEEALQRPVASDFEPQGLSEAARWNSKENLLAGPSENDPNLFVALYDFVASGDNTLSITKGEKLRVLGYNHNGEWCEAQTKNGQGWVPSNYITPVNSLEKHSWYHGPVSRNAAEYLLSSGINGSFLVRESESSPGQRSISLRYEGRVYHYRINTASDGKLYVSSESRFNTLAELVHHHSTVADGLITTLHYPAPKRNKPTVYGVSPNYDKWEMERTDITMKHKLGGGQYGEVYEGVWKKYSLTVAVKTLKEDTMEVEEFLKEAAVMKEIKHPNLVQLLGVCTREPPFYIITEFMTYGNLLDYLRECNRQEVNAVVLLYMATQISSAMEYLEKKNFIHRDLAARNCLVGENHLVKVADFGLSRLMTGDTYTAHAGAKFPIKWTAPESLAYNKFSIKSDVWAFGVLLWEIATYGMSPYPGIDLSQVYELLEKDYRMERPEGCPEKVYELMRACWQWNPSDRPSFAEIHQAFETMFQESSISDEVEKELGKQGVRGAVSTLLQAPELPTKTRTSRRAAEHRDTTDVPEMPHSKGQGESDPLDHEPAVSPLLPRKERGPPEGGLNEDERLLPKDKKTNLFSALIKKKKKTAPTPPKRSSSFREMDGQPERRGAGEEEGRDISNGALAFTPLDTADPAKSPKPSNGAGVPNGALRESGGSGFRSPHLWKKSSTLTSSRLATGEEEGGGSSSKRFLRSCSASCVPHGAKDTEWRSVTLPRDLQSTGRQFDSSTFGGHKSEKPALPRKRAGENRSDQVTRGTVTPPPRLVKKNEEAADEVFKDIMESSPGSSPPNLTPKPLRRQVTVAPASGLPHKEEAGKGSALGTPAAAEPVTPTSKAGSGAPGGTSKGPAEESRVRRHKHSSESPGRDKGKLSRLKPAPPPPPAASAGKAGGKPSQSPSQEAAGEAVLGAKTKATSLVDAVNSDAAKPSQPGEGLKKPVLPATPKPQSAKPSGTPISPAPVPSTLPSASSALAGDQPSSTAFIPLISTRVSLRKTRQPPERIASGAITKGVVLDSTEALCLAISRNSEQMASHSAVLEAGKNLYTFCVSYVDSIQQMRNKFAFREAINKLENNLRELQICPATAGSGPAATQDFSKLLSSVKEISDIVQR
UniProt P31749: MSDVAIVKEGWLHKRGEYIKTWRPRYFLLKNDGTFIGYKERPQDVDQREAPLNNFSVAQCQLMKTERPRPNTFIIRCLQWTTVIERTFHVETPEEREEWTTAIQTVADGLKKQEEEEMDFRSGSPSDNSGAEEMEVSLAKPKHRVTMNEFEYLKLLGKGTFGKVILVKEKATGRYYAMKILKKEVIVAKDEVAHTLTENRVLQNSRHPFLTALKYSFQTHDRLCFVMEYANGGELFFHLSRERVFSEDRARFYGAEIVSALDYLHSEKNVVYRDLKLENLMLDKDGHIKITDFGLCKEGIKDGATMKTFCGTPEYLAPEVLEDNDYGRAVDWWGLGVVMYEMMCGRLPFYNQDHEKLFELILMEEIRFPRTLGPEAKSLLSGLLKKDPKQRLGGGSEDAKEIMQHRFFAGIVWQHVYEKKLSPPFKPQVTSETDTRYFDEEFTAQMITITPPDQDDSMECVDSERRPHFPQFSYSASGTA
UniProt Q9UM73: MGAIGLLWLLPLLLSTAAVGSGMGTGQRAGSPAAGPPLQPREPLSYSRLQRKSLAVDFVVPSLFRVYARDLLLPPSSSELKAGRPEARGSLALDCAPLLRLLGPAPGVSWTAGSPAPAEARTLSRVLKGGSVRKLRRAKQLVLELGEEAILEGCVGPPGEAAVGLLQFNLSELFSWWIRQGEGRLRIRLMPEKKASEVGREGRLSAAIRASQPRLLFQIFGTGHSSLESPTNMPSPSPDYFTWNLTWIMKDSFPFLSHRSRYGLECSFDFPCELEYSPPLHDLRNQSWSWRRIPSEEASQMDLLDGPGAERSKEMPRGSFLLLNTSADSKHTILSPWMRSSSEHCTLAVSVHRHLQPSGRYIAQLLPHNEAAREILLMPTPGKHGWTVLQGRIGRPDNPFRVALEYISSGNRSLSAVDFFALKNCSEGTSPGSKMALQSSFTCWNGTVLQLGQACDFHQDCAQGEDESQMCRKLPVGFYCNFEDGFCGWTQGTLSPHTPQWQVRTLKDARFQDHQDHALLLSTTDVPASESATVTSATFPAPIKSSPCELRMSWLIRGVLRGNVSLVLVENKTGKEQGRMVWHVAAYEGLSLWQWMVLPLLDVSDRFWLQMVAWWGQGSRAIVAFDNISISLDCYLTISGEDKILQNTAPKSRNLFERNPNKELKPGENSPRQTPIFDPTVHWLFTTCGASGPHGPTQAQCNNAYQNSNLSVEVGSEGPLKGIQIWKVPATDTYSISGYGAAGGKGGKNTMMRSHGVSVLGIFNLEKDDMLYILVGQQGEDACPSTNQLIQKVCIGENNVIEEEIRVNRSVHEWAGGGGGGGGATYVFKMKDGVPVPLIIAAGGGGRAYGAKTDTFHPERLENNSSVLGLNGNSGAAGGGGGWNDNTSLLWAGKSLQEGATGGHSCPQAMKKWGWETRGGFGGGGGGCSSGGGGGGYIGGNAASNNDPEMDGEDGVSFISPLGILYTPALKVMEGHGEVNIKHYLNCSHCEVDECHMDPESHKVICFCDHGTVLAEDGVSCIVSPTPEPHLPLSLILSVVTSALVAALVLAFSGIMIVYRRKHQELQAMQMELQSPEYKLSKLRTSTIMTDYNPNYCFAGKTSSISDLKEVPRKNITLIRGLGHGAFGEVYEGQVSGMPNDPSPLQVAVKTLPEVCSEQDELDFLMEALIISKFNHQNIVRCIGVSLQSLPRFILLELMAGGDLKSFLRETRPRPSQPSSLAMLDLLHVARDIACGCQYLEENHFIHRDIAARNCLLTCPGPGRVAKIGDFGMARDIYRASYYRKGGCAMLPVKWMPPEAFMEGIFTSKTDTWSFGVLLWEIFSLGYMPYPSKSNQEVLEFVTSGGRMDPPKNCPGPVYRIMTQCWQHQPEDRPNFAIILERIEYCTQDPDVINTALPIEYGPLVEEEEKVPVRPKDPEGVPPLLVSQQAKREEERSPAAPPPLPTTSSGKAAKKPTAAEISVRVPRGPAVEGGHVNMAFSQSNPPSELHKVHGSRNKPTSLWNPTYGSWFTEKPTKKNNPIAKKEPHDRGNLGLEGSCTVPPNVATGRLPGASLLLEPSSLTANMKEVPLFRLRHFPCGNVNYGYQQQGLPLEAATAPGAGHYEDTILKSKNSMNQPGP
UniProt P10398: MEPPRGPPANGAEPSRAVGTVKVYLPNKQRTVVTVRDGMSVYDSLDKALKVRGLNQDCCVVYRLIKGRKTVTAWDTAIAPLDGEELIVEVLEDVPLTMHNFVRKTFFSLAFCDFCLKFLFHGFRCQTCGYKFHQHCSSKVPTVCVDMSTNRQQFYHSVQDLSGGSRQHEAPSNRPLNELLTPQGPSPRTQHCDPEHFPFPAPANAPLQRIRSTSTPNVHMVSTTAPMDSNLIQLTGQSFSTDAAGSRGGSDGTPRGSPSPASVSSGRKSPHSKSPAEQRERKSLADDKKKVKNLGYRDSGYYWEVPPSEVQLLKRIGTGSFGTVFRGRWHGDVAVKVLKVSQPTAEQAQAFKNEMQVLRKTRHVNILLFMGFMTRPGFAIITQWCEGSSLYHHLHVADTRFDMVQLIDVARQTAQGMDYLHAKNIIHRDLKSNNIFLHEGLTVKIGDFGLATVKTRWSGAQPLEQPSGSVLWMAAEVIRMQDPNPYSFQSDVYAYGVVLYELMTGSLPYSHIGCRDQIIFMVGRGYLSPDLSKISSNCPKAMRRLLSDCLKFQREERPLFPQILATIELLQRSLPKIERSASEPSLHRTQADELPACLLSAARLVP
UniProt O14965: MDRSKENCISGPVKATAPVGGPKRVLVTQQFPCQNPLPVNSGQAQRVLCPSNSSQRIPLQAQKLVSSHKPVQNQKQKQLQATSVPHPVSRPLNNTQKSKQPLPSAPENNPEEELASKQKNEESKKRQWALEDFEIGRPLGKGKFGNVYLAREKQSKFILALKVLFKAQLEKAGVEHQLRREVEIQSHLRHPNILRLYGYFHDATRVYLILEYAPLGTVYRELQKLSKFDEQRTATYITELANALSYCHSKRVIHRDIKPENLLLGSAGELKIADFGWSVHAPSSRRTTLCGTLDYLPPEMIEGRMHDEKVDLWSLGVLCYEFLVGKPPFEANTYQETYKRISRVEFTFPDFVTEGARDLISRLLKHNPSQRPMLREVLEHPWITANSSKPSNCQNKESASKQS
UniProt Q96GD4, whole entry: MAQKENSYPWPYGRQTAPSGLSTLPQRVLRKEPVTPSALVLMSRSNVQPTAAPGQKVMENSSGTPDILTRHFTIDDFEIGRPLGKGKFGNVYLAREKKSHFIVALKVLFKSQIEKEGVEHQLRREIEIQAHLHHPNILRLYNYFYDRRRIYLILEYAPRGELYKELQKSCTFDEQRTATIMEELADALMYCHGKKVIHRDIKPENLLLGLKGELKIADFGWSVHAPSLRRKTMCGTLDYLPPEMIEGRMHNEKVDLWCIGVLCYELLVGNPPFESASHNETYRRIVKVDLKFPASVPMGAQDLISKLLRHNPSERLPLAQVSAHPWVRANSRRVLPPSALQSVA
UniProt Q9UQB9: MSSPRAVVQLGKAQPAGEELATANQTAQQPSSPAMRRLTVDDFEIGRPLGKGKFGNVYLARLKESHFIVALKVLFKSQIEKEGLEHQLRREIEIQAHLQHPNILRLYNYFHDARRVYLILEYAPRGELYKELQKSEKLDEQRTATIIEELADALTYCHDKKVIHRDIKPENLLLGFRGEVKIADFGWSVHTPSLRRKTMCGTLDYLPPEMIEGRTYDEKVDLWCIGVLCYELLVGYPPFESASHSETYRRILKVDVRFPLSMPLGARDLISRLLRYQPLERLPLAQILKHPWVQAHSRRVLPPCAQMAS
UniProt P51451: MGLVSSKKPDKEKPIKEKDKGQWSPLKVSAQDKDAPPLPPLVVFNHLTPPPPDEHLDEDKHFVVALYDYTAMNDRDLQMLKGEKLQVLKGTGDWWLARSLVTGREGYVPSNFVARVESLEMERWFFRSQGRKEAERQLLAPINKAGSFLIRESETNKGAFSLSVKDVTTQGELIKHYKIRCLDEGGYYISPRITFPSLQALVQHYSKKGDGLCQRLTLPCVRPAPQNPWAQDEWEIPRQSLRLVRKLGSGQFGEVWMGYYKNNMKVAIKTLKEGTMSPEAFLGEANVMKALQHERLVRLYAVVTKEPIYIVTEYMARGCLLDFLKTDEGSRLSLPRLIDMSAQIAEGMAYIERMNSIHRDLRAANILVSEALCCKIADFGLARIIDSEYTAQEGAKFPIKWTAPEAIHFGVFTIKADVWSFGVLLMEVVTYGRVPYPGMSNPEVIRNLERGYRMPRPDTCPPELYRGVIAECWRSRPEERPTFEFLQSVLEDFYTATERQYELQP
UniProt P51813: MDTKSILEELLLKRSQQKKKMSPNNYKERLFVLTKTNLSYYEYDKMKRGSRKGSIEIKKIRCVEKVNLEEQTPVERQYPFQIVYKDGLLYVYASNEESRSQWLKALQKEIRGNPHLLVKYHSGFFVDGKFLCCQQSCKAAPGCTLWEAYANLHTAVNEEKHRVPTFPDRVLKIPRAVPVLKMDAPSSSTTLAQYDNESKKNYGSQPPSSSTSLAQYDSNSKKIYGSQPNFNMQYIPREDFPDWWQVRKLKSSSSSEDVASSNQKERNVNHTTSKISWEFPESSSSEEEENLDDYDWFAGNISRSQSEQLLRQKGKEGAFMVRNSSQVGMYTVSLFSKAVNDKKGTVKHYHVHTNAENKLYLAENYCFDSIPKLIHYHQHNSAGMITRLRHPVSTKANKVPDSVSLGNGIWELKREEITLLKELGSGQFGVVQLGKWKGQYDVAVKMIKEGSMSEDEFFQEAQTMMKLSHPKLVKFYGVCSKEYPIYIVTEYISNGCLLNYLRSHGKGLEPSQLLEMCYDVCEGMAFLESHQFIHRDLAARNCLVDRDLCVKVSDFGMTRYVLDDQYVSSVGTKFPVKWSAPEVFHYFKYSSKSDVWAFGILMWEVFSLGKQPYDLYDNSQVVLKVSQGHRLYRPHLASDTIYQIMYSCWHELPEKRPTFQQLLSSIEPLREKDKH

Measured: kinase-Nluc reporter destabilization hit call

CCc1nc(-c2cccc(C)c2)c(-c2ccnc(NC(=O)c3ccccc3)c2)s1 (10 µM)
inactive: ABL1 = 0 | AKT1 = 0 | ALK 0 | ARAF 0 | AURKA 0 | AURKB 0 | AURKC 0 | BLK 0 | BMX 0 | BRAF 0

COc1cc(C(=O)NC2CCN(C)CC2)c(F)cc1Nc1ncc2c(n1)N(C1CCCC1)CC(F)(F)C(=O)N2C [TAK-960 (dihydrochloride)] (2.5 µM)
inactive: ABL1 = 0 | AKT1 = 0 | ALK 0 | ARAF 0 | AURKA 0 | AURKB 0 | AURKC 0 | BLK 0 | BMX 0 | BRAF 0

CCCCNc1ncc(-c2ccc(CN3CCOCC3)cn2)c(NC2CCC(O)CC2)n1 (stereo not given) (10 µM)
inactive: ABL1 = 0 | AKT1 = 0 | ALK 0 | ARAF 0 | AURKA 0 | AURKB 0 | AURKC 0 | BLK 0 | BMX 0 | BRAF 0

O=C1NC(=NCc2cccs2)S/C1=C\c1ccc2ncccc2c1 (10 µM)
active: BRAF 1
inactive: ABL1 = 0 | AKT1 = 0 | ALK 0 | ARAF 0 | AURKA 0 | AURKB 0 | AURKC 0 | BLK 0 | BMX 0

CC(C)c1ccc2oc3nc(N)c(C(=O)O)cc3c(=O)c2c1 [Amlexanox] (10 µM)
inactive: ABL1 = 0 | AKT1 = 0 | ALK 0 | ARAF 0 | AURKA 0 | AURKB 0 | AURKC 0 | BLK 0 | BMX 0 | BRAF 0

O=C(/C=C/c1ccc(O)c(O)c1)c1ccc(O)cc1O [Butein] (10 µM)
inactive: ABL1 = 0 | AKT1 = 0 | ALK 0 | ARAF 0 | AURKA 0 | AURKB 0 | AURKC 0 | BLK 0 | BMX 0 | BRAF 0

CC(C)(C)S(=O)(=O)c1cc2c(Nc3ccc4scnc4c3)ncnc2cc1OCCO (2.5 µM)
inactive: ABL1 = 0 | AKT1 = 0 | ALK 0 | ARAF 0 | AURKA 0 | AURKB 0 | AURKC 0 | BLK 0 | BMX 0 | BRAF 0

Cc1c[nH]c2ccccc12 [Skatole] (10 µM)
inactive: ABL1 = 0 | AKT1 = 0 | ALK 0 | ARAF 0 | AURKA 0 | AURKB 0 | AURKC 0 | BLK 0 | BMX 0 | BRAF 0
